Source: the supplement of paper PMC10849652
This is one part of the list.

By UniProt entry, the sequences of proteins in these tests, tags left out. Where a name states a change or a piece, a line headed by the entry shows the natural chain unless it says otherwise.
UniProt Q8IWU2: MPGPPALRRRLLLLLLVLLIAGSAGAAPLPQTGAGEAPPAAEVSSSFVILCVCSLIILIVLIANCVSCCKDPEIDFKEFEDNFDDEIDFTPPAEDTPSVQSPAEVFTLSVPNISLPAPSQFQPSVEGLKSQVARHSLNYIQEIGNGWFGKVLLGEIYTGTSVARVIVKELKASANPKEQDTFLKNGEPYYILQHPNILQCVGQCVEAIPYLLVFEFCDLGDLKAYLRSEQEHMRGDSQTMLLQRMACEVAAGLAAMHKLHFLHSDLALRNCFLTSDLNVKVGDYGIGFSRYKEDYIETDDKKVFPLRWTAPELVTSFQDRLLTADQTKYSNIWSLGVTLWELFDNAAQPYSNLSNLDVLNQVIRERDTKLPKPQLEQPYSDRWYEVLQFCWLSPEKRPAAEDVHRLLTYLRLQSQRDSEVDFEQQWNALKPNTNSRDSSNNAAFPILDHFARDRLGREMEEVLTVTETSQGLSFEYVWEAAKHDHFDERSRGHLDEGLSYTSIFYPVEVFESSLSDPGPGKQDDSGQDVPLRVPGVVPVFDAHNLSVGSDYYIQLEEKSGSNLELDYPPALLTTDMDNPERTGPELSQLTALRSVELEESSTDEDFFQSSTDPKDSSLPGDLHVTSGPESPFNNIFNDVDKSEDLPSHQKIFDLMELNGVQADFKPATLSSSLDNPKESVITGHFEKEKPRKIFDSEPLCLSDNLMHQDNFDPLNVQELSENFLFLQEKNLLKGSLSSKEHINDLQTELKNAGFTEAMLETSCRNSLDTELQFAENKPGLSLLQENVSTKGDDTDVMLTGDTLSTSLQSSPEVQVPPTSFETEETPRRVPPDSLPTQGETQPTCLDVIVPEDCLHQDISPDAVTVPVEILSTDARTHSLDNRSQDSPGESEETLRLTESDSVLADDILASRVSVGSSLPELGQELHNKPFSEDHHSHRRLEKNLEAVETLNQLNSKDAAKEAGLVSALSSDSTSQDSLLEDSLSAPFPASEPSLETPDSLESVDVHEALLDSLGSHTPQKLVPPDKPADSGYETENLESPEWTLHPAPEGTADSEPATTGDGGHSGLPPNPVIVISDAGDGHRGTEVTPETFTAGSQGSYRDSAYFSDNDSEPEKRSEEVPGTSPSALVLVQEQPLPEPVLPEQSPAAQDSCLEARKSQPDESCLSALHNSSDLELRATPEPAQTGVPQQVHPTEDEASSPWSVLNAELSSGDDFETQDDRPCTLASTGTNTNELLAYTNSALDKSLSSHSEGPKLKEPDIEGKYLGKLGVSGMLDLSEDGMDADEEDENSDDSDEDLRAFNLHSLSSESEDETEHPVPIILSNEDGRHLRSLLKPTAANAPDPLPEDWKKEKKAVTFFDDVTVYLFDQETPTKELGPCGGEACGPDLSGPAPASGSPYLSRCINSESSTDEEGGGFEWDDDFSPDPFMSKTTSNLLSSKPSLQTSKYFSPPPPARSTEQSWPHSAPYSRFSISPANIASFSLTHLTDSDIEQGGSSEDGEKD
UniProt Q9BRT6: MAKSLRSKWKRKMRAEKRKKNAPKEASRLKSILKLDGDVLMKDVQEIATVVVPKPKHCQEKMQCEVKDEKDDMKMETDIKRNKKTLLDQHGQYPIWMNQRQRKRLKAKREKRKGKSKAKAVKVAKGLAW
UniProt Q8TCA0: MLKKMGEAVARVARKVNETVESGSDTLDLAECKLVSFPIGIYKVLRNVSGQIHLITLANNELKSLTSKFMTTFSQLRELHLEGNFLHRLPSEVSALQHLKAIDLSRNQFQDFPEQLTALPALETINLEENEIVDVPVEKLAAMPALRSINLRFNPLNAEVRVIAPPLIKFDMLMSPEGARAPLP
UniProt Q5TKA1: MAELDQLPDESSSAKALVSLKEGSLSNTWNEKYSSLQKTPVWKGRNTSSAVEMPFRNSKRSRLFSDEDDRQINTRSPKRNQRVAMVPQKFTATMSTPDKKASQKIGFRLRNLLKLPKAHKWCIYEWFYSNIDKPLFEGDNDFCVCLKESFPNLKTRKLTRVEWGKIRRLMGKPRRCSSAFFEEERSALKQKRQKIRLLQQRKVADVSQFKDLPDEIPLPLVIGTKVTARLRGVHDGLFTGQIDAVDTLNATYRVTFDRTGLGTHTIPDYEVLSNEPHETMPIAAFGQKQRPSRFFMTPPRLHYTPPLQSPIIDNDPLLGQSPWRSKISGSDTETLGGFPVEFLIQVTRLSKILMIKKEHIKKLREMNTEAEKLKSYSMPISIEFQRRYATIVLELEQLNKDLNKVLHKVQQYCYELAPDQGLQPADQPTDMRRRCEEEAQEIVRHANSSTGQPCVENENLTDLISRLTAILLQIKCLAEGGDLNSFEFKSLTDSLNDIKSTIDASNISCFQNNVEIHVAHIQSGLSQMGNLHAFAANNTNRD
UniProt Q14693: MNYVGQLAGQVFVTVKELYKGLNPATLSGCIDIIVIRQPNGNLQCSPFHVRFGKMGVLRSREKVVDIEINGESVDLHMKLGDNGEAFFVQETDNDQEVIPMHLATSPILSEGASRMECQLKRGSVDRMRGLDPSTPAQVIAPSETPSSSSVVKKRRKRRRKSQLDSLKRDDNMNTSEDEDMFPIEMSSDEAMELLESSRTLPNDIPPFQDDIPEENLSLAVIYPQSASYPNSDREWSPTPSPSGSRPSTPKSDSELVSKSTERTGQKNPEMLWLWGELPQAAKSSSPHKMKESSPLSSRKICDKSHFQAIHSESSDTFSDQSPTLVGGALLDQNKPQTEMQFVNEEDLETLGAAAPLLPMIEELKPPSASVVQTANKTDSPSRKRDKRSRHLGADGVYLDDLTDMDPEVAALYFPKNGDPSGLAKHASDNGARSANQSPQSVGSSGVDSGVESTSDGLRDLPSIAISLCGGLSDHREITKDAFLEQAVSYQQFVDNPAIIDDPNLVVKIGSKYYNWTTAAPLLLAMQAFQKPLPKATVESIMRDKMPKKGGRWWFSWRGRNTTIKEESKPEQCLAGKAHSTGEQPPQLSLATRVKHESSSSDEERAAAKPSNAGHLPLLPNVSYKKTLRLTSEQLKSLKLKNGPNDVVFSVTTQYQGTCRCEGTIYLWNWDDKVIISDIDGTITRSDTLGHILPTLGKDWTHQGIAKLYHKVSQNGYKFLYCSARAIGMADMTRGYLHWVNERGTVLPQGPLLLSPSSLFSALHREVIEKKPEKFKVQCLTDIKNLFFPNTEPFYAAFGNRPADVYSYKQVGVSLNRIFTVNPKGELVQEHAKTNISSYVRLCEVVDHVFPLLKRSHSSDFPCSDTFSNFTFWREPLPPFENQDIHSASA
UniProt Q96BZ8: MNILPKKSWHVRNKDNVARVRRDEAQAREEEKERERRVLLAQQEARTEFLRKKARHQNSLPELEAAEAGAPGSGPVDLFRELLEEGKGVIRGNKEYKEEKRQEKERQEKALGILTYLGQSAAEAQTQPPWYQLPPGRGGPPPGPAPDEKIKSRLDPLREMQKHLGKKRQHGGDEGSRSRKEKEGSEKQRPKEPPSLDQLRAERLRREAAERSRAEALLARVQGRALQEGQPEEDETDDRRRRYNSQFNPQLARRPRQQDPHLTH
UniProt Q6UWP7: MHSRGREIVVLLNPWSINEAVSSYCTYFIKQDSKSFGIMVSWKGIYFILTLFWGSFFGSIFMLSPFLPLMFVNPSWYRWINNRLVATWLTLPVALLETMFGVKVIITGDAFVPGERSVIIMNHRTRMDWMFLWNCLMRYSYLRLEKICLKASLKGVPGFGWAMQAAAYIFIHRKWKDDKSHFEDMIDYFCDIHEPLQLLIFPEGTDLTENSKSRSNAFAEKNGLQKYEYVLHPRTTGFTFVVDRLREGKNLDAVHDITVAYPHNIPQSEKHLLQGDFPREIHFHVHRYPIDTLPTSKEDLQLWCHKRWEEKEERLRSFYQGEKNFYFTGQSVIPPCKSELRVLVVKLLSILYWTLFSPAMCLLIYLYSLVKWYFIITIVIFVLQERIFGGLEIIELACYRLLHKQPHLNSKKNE
UniProt P13796: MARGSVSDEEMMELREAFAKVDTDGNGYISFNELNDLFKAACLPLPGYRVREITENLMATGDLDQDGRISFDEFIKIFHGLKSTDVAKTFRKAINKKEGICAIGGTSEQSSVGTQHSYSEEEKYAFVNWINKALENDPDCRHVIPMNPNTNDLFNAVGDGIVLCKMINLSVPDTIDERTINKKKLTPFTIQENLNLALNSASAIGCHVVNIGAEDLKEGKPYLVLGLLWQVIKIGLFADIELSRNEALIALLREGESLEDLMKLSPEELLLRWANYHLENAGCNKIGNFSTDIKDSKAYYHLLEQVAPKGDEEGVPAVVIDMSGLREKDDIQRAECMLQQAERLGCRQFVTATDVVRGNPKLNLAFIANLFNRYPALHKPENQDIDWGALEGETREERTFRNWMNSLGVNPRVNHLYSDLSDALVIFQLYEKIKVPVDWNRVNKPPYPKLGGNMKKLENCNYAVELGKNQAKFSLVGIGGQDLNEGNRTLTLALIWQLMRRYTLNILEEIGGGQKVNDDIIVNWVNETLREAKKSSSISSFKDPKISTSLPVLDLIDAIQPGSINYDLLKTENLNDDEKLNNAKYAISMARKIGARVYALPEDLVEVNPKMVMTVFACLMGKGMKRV
UniProt O00214: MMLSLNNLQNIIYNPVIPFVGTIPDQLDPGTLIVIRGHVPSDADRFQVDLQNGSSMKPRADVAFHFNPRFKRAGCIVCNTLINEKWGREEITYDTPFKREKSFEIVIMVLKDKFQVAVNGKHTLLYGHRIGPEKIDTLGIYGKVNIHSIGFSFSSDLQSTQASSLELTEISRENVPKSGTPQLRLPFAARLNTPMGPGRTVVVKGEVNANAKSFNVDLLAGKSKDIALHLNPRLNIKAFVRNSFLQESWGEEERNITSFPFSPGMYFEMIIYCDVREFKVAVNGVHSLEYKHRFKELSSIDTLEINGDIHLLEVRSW
UniProt Q9UIC8: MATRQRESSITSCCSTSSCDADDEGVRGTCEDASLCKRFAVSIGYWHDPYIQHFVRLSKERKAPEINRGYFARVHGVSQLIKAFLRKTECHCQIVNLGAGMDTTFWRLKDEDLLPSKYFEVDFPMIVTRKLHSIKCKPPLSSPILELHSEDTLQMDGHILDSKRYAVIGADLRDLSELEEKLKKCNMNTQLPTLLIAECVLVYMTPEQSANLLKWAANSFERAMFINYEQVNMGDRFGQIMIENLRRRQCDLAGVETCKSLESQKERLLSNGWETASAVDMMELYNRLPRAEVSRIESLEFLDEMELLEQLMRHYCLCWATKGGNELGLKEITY
UniProt Q13094: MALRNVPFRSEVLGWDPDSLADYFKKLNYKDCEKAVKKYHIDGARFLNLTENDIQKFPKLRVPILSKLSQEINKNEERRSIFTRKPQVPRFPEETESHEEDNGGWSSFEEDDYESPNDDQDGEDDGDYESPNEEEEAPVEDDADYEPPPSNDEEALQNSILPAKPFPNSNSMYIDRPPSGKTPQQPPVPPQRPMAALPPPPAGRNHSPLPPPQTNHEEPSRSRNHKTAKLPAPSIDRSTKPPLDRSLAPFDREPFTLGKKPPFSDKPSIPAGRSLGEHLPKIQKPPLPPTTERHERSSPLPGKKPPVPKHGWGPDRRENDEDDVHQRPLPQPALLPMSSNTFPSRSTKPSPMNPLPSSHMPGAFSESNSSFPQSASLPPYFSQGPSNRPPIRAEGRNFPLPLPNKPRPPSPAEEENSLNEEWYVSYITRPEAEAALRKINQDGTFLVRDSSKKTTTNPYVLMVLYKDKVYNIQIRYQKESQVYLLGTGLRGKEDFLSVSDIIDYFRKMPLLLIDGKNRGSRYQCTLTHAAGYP
UniProt O95777: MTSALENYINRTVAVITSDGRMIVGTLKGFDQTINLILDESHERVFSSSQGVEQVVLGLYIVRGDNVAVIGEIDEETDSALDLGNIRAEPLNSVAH
UniProt Q6MZP7: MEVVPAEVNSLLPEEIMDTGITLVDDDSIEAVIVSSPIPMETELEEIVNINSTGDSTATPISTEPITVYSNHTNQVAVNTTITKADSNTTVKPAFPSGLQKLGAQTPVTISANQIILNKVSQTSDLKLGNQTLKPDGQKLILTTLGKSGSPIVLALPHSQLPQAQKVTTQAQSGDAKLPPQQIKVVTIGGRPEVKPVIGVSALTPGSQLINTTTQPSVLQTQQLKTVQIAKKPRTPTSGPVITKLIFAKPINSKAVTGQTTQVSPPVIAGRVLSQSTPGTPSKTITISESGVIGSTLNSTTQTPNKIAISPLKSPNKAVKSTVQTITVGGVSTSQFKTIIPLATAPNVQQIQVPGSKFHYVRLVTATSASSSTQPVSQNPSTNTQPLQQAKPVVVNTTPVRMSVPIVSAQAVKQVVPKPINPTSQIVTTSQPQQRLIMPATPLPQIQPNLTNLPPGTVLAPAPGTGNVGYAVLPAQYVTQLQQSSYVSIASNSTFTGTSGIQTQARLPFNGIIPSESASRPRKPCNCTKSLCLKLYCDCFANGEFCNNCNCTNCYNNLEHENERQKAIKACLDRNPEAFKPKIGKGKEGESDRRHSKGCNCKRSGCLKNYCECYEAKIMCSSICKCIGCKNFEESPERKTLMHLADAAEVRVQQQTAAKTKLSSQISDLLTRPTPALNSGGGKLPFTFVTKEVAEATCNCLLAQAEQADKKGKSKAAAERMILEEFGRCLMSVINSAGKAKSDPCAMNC

Legend:
Assay in all cases: log2 fold change, soluble protein after heating vs DMSO (PISA); higher = thermal stabilisation; K562 lysate, 10 uM; active = over 0.2 and 3.5 SD of the protein, either way, in both replicates (recomputed)
erlotinib = compound: C#Cc1cccc(Nc2ncnc3cc(OCCOC)c(OCCOC)cc23)c1 [erlotinib]
How it was run: (§1)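 Following dounce homogenisation of K562 pellets in PBS pH 7.4 with 1 mM MgCl2, crude extract at 1 mg/mL protein was incubated for 30 min with 10 μM compound. Aliquots were then heated for 3 min over 48°C-58°C and pooled, NP-40 was added to 0.5% at 4°C, and soluble protein was recovered as the supernatant at 21,000xg for 90 min. Channel-sum-equalised TMTpro 16plex LC-MS/MS quantified this protein. Each value, from duplicates, is a log-two fold change in thermal stability relative to solvent controls.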

[1] = compound: C/C(=N\NC(=O)C1=CC(=CC=C1)S(=O)(=O)N2CCOCC2)/C3=C(C=CC(=C3)Cl)O
How it was run: as §1

[2] = compound: C1=CC(=CC=C1C2=NC3=C(N2)C=C(C=C3)C(=O)N)OC4=CC=C(C=C4)Cl
How it was run: as §1

[3] = compound: C1=CC2=C(C=CC(=C2)/C=C\3/C(=O)NC(=NCC4=CC=CS4)S3)N=C1
How it was run: as §1

[4] = compound: C1=CC2=NC=CN=C2C=C1/C=C/3\C(=O)NC(=O)S3
How it was run: as §1

[5] = compound: C1=CC=C(C=C1)C2=NC(=C(N2)C3=CC=NC=C3)C4=CC(=C(C=C4)Cl)O
How it was run: as §1

[6] = compound: C1=CC=C2C(=C1)C3=NNC4=CC=CC(=C43)C2=O
How it was run: as §1

[7] = compound: C1CCN(C1)C(=O)NC2=CC=CC(=C2)NC3=NC=C(C(=N3)NCCC4=CN=CN4)Br
How it was run: as §1

[8] = compound: C1CN(CCC1(CC2=CC=C(C=C2)Cl)N)C3=NC=NC4=C3C=CN4
How it was run: as §1

IRAK-1-4 Inhibitor I = compound: C1COCCN1CCN2C3=CC=CC=C3N=C2NC(=O)C4=CC(=CC=C4)[N+](=O)[O-] [IRAK-1-4 Inhibitor I]
How it was run: as §1

ibrutinib = compound: C=CC(=O)N1CCC[C@@H](n2nc(-c3ccc(Oc4ccccc4)cc3)c3c(N)ncnc32)C1 [ibrutinib]
How it was run: as §1

[9] = compound: CC(=O)c1cnc2ccc(-c3cc(Cl)c(O)c(Cl)c3)nc2c1N[C@H]1CC[C@H](CN(C)C)CC1
How it was run: as §1

ralimetinib = compound: CC(C)(C)Cn1c(N)nc2ccc(-c3[nH]c(C(C)(C)C)nc3-c3ccc(F)cc3)nc21 [ralimetinib]
How it was run: as §1

[10] = compound: CC(C)(O)CC(=O)NCCn1ccc2ncnc(Nc3ccc(Oc4cccc(C(F)(F)F)c4)c(Cl)c3)c21
How it was run: as §1

[11] = compound: CC(C)C1=C2N=C(C=C(N2N=C1)NCC3=CC=CC=C3)NCCCCCCN
How it was run: as §1

[12] = compound: CC1=C(C(CC(=O)N1)C2=CC=C(C=C2)C(F)(F)F)C(=O)NC3=C(C=C4C(=C3)C=NN4)F
How it was run: as §1

[13] = compound: CC1=C(C2=C(C=C1)C(=O)C3=CC=CC=C3N2CCCN)C
How it was run: as §1

[14] = compound: CC1=C(C=C(C=C1)NC(=O)C2=CC(=CC=C2)C(C)(C)C#N)NC3=CC4=C(C=C3)N=CN(C4=O)C
How it was run: as §1

[15] = compound: CC1=C(C=C(C=C1)NC(=O)C2=CC(=CC=C2)N(C)C)NC(=O)C3=CC=C(C=C3)O
How it was run: as §1

[16] = compound: CC1=CC=C(C=C1)SC2=C3C=C(SC3=CN=C2)C(=O)N
How it was run: as §1

| Target | log2 fold change (erlotinib) | log2 fold change [1] | log2 fold change [2] | log2 fold change [3] | log2 fold change [4] | log2 fold change [5] | log2 fold change [6] | log2 fold change [7] | log2 fold change [8] | log2 fold change (IRAK-1-4 Inhibitor I) | log2 fold change (ibrutinib) | log2 fold change [9] | log2 fold change (ralimetinib) | log2 fold change [10] | log2 fold change [11] | log2 fold change [12] | log2 fold change [13] | log2 fold change [14] | log2 fold change [15] | log2 fold change [16] |
| --- | --- | --- | --- | --- | --- | --- | --- | --- | --- | --- | --- | --- | --- | --- | --- | --- | --- | --- | --- | --- |
| LMTK2 (UniProt Q8IWU2) | inactive: -0.075 | inactive: 0.057 | inactive: 0.046 | inactive: 0.002 | inactive: -0.076 | inactive: 0.02 | inactive: -0.043 | inactive: -0.033 | inactive: 0.1 | inactive: -0.007 | inactive: -0.017 | inactive: 0.051 | inactive: 0.038 | inactive: -0.057 | inactive: -0.013 | inactive: -0.025 | inactive: -0.025 | inactive: 0.127 | inactive: 0.015 | inactive: -0.034 |
| LEO1 (UniProt Q8WVC0) | inactive: 0.014 | inactive: -0.043 | inactive: -0.024 | inactive: -0.01 | inactive: 0.009 | inactive: 0.027 | inactive: -0.042 | inactive: 0.013 | inactive: -0.015 | inactive: 0.017 | inactive: -0.032 | inactive: -0.019 | inactive: 0.007 | inactive: -0.035 | inactive: -0.024 | inactive: -0.025 | inactive: -0.026 | inactive: 0.029 | inactive: -0.006 | inactive: -0.017 |
| LLPH (UniProt Q9BRT6) | inactive: -0.001 | inactive: -0.042 | inactive: -0.003 | inactive: 0.061 | inactive: -0.049 | inactive: 0.024 | inactive: 0.051 | inactive: 0.038 | inactive: -0.071 | inactive: -0.039 | inactive: 0.068 | inactive: 0.024 | inactive: -0.002 | inactive: 0.053 | inactive: -0.011 | inactive: 0.062 | inactive: 0.009 | inactive: -0.072 | inactive: -0.026 | inactive: -0.001 |
| LRRC20 (UniProt Q8TCA0) | inactive: 0.025 | inactive: -0.08 | inactive: -0.039 | inactive: 0.053 | inactive: 0.061 | inactive: -0.005 | inactive: 0.009 | inactive: 0.007 | inactive: 0.021 | inactive: 0.02 | inactive: -0.016 | inactive: -0.013 | inactive: 0.007 | inactive: 0.015 | inactive: 0.024 | inactive: -0.028 | inactive: -0.046 | inactive: 0.012 | inactive: 0.028 | inactive: 0.034 |
| LIN9 isoform 2 (UniProt Q5TKA1) | inactive: 0.04 | inactive: 0.094 | inactive: 0.074 | inactive: -0.064 | inactive: -0.012 | inactive: -0.02 | inactive: 0.023 | inactive: -0.009 | inactive: -0.034 | inactive: 0.015 | inactive: -0.095 | inactive: -0.034 | inactive: -0.031 | inactive: 0.013 | inactive: 0.097 | inactive: -0.032 | inactive: 0 | inactive: -0.018 | inactive: -0.033 | inactive: -0.049 |
| LPIN1 isoform 7 (UniProt Q14693) | inactive: 0.047 | inactive: -0.046 | inactive: 0.027 | inactive: 0.003 | inactive: 0.003 | inactive: 0.011 | inactive: -0.006 | inactive: 0.038 | inactive: 0.132 | inactive: 0.034 | inactive: 0.02 | inactive: 0.07 | inactive: 0.035 | inactive: -0.025 | inactive: -0.033 | inactive: 0.066 | inactive: 0.022 | inactive: -0.016 | inactive: 0.007 | inactive: -0.009 |
| LENG1 (UniProt Q96BZ8) | inactive: -0.019 | inactive: -0.052 | inactive: -0.025 | inactive: -0.011 | inactive: -0.005 | inactive: -0.025 | inactive: 0.028 | inactive: -0.054 | inactive: -0.08 | inactive: 0.095 | inactive: 0.03 | inactive: 0.015 | inactive: -0.13 | inactive: -0.05 | inactive: -0.111 | inactive: -0.071 | inactive: -0.005 | inactive: 0.036 | inactive: 0.075 | inactive: -0.015 |
| LCLAT1 (UniProt Q6UWP7) | inactive: -0.04 | inactive: -0.026 | inactive: 0.005 | inactive: -0.008 | inactive: -0.009 | inactive: -0.04 | inactive: -0.091 | inactive: 0.021 | inactive: 0.028 | inactive: 0.007 | inactive: -0.105 | inactive: -0.034 | inactive: 0.013 | inactive: -0.012 | inactive: 0.002 | inactive: 0.016 | inactive: -0.024 | inactive: 0.075 | inactive: 0.024 | inactive: -0.049 |
| LCP1 (UniProt P13796) | inactive: -0.012 | inactive: 0.002 | inactive: 0.024 | inactive: -0.008 | inactive: -0.018 | inactive: 0.008 | inactive: 0.007 | inactive: 0 | inactive: 0.001 | inactive: 0.005 | inactive: -0.006 | inactive: -0.007 | inactive: -0.016 | inactive: -0.024 | inactive: -0.015 | inactive: -0.017 | inactive: -0.023 | inactive: 0.023 | inactive: -0.001 | inactive: -0.019 |
| LGALS8 isoform 2 (UniProt O00214) | inactive: -0.004 | inactive: 0.055 | inactive: 0.012 | inactive: 0.072 | inactive: 0.107 | inactive: 0.002 | inactive: 0.021 | inactive: -0.009 | inactive: 0.048 | inactive: 0.029 | inactive: 0.014 | inactive: 0.003 | inactive: 0.021 | inactive: -0.064 | inactive: 0.009 | inactive: 0.01 | inactive: -0.041 | inactive: 0.035 | inactive: -0.005 | inactive: -0.011 |
| LCMT1 (UniProt Q9UIC8) | inactive: 0.004 | inactive: 0.019 | inactive: 0.038 | inactive: -0.034 | inactive: -0.002 | inactive: -0.018 | inactive: 0.017 | inactive: -0.007 | inactive: -0.007 | inactive: 0.023 | inactive: 0.004 | inactive: 0.021 | inactive: 0.054 | inactive: 0.006 | inactive: -0.017 | inactive: -0.01 | inactive: 0.034 | inactive: 0.011 | inactive: 0.012 | inactive: -0.002 |
| LIMS1 isoform 3 (UniProt P48059) | inactive: -0.004 | inactive: -0.034 | inactive: 0.014 | inactive: 0.009 | inactive: -0.008 | inactive: 0.004 | inactive: 0.094 | inactive: 0.003 | inactive: -0.017 | inactive: -0.024 | inactive: 0.003 | inactive: 0.033 | inactive: 0.003 | inactive: 0.023 | inactive: -0.036 | inactive: -0.012 | inactive: -0.01 | inactive: 0.052 | inactive: -0.023 | inactive: -0.006 |
| LCP2 (UniProt Q13094) | inactive: -0.012 | inactive: -0.034 | inactive: 0.032 | inactive: -0.012 | inactive: -0.013 | inactive: -0.004 | inactive: 0.015 | inactive: 0.025 | inactive: 0.057 | inactive: 0.016 | inactive: 0.055 | inactive: -0.034 | inactive: 0.01 | inactive: -0.005 | inactive: 0.015 | inactive: -0.032 | inactive: -0.015 | inactive: -0.021 | inactive: 0.01 | inactive: 0.008 |
| LSM8 (UniProt O95777) | inactive: -0.034 | inactive: 0.003 | inactive: -0.003 | inactive: 0.027 | active: 0.423 | inactive: -0.026 | inactive: 0.066 | inactive: -0.008 | inactive: -0.021 | inactive: 0.028 | inactive: 0.051 | inactive: 0.012 | inactive: 0.055 | inactive: -0.021 | inactive: -0.02 | inactive: -0.01 | inactive: -0.011 | inactive: 0.03 | inactive: -0.007 | inactive: 0.005 |
| LIN54 (UniProt Q6MZP7) | inactive: 0.047 | inactive: -0.23 | inactive: 0.087 | inactive: 0.055 | inactive: 0.056 | inactive: 0.048 | inactive: -0.016 | inactive: 0.022 | inactive: -0.03 | inactive: 0.049 | inactive: 0.048 | inactive: 0.002 | inactive: 0.072 | inactive: -0.023 | inactive: -0.051 | inactive: 0.036 | inactive: 0.049 | inactive: -0.075 | inactive: -0.042 | inactive: -0.026 |

Record cards, from the list above. Values in the order: log2 fold change (erlotinib) | log2 fold change [1] | log2 fold change [2] | log2 fold change [3] | log2 fold change [4] | log2 fold change [5] | log2 fold change [6] | log2 fold change [7] | log2 fold change [8] | log2 fold change (IRAK-1-4 Inhibitor I) | log2 fold change (ibrutinib) | log2 fold change [9] | log2 fold change (ralimetinib) | log2 fold change [10] | log2 fold change [11] | log2 fold change [12] | log2 fold change [13] | log2 fold change [14] | log2 fold change [15] | log2 fold change [16]
LEO1 (UniProt Q8WVC0) as listed: inactive: 0.014 | inactive: -0.043 | inactive: -0.024 | inactive: -0.01 | inactive: 0.009 | inactive: 0.027 | inactive: -0.042 | inactive: 0.013 | inactive: -0.015 | inactive: 0.017 | inactive: -0.032 | inactive: -0.019 | inactive: 0.007 | inactive: -0.035 | inactive: -0.024 | inactive: -0.025 | inactive: -0.026 | inactive: 0.029 | inactive: -0.006 | inactive: -0.017
LCLAT1 (UniProt Q6UWP7) as listed: inactive: -0.04 | inactive: -0.026 | inactive: 0.005 | inactive: -0.008 | inactive: -0.009 | inactive: -0.04 | inactive: -0.091 | inactive: 0.021 | inactive: 0.028 | inactive: 0.007 | inactive: -0.105 | inactive: -0.034 | inactive: 0.013 | inactive: -0.012 | inactive: 0.002 | inactive: 0.016 | inactive: -0.024 | inactive: 0.075 | inactive: 0.024 | inactive: -0.049
